Measured values: the supplement of paper PMC10849652
Some of the results follow.

Chains of the proteins cited; added tags and fusions are not shown. Lines headed by an entry give the natural chain unless they say otherwise; changes in a name come on top.
UniProt P20336: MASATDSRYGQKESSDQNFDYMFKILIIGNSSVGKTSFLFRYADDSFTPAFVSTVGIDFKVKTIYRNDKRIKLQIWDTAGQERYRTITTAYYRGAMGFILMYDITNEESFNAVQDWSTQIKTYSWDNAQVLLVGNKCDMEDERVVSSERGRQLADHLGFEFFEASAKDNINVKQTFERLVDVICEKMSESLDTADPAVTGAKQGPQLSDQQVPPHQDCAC
UniProt Q9NRW1: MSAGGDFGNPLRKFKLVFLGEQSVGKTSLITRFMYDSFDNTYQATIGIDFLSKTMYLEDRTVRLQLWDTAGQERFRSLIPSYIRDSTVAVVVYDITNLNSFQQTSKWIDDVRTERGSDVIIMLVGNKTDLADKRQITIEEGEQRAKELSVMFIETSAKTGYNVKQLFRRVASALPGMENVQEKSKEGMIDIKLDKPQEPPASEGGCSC
UniProt Q15311: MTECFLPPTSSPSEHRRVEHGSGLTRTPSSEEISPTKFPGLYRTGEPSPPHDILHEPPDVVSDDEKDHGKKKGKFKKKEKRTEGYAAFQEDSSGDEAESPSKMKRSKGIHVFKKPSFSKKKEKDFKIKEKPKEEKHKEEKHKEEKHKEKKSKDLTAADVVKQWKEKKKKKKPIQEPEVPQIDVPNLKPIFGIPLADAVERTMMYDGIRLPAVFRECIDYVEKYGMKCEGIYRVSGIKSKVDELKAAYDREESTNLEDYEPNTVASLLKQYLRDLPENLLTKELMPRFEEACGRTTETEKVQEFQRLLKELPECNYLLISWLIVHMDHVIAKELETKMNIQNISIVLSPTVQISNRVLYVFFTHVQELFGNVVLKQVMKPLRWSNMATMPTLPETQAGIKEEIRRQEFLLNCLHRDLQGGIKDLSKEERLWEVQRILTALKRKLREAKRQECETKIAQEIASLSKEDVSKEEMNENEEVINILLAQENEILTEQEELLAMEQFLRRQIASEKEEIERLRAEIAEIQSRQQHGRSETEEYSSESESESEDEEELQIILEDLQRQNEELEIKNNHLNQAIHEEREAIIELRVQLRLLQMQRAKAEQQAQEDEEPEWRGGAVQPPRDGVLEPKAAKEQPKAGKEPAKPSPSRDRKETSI
UniProt Q9H2M9: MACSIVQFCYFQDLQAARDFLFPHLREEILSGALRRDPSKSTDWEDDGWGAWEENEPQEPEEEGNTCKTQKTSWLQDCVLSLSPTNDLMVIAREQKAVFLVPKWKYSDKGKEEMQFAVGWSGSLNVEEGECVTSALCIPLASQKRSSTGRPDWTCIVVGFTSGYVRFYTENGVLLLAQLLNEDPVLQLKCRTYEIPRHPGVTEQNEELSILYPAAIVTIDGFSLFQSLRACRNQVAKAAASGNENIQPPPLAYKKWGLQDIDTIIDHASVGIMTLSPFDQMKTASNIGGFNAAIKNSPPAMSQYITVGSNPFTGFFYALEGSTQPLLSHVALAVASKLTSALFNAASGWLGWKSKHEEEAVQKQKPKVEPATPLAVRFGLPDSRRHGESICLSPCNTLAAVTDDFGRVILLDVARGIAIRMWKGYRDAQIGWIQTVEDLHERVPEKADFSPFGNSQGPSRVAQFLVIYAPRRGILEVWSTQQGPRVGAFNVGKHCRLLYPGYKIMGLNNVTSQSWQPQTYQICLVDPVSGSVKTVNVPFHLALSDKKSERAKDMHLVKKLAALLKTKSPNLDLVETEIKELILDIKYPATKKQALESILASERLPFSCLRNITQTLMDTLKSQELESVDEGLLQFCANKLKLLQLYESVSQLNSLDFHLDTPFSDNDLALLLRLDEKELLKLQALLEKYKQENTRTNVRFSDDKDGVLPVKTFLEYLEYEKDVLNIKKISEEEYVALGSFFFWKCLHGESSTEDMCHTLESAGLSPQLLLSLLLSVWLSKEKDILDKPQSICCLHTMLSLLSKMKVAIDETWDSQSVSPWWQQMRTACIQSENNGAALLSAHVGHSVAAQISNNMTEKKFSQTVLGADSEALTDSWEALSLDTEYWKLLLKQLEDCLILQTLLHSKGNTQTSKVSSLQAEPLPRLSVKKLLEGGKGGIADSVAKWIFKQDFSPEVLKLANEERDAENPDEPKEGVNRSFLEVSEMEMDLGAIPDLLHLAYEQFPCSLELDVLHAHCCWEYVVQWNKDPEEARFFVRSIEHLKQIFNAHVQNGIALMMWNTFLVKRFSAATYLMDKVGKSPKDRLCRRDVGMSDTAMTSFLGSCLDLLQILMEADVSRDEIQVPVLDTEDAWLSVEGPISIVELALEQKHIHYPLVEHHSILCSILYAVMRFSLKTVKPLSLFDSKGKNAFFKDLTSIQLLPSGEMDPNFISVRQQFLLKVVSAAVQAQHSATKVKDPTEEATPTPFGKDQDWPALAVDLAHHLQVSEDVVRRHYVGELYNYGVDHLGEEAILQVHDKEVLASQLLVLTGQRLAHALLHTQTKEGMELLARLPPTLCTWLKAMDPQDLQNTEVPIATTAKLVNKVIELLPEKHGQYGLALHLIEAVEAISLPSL
UniProt Q92696: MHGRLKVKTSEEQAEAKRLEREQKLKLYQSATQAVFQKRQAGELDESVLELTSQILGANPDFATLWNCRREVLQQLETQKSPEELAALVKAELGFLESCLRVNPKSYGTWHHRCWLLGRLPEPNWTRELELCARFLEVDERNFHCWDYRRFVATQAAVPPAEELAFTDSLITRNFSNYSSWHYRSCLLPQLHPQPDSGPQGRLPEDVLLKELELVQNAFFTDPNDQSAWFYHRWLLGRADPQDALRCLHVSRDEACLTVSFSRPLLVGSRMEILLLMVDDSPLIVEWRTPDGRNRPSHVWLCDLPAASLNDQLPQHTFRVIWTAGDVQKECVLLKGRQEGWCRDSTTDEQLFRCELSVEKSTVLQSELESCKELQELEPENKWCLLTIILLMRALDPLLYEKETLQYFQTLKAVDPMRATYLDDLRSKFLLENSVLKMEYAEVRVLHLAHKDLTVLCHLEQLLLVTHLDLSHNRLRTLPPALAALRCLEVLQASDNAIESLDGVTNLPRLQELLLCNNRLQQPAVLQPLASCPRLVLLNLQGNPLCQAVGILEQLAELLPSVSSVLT
UniProt Q9BTL3: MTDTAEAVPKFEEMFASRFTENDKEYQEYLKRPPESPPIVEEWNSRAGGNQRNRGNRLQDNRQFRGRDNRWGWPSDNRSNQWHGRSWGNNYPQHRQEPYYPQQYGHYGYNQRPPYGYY
UniProt P51151: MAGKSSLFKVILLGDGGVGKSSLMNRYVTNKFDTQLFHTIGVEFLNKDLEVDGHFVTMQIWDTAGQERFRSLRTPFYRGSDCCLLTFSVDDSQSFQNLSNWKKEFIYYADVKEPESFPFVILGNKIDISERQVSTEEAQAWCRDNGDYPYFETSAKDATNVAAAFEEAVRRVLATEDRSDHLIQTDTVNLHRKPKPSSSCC
UniProt P54725: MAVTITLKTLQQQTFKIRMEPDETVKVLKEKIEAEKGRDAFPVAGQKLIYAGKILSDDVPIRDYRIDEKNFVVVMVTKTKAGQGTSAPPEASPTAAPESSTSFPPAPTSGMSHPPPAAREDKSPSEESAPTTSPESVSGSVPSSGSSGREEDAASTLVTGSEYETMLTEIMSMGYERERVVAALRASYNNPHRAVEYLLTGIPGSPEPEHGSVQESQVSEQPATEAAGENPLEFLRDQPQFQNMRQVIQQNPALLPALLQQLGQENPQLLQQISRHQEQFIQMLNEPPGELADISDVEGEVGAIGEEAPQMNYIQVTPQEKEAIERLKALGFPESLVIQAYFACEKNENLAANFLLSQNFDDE
UniProt Q9UL25: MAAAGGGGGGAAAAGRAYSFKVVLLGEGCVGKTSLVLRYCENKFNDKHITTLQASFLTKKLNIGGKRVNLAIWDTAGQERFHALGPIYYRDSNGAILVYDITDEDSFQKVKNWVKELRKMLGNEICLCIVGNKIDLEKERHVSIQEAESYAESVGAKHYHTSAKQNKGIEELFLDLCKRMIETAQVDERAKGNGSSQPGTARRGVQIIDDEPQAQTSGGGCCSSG
UniProt Q9UL26: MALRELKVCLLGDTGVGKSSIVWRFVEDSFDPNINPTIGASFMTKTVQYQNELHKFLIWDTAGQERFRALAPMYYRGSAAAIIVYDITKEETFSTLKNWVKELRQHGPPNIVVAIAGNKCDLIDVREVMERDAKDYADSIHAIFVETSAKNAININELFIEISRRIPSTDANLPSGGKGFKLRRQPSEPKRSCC
UniProt P06737: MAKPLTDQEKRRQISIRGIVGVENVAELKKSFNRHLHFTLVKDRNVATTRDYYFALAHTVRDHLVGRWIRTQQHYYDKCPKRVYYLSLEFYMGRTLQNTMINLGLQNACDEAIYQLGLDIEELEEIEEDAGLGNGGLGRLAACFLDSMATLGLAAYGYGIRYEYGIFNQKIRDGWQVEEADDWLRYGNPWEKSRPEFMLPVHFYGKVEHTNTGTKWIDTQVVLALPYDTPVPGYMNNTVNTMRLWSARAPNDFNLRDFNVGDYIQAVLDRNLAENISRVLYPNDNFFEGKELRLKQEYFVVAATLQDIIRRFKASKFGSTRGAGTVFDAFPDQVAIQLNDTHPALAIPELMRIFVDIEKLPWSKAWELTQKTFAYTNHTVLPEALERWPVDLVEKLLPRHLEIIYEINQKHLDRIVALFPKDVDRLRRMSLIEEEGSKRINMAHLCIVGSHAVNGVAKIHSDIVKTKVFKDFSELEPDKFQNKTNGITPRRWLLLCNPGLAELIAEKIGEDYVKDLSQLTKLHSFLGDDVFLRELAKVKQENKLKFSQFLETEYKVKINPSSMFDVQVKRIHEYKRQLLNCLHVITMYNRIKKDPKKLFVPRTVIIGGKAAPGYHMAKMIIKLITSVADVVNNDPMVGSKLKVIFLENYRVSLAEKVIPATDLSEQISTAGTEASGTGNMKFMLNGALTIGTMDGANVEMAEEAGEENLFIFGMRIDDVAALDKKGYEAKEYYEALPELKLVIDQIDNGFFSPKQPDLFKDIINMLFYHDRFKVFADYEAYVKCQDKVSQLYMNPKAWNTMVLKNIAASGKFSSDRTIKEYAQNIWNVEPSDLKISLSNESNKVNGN
UniProt Q15042: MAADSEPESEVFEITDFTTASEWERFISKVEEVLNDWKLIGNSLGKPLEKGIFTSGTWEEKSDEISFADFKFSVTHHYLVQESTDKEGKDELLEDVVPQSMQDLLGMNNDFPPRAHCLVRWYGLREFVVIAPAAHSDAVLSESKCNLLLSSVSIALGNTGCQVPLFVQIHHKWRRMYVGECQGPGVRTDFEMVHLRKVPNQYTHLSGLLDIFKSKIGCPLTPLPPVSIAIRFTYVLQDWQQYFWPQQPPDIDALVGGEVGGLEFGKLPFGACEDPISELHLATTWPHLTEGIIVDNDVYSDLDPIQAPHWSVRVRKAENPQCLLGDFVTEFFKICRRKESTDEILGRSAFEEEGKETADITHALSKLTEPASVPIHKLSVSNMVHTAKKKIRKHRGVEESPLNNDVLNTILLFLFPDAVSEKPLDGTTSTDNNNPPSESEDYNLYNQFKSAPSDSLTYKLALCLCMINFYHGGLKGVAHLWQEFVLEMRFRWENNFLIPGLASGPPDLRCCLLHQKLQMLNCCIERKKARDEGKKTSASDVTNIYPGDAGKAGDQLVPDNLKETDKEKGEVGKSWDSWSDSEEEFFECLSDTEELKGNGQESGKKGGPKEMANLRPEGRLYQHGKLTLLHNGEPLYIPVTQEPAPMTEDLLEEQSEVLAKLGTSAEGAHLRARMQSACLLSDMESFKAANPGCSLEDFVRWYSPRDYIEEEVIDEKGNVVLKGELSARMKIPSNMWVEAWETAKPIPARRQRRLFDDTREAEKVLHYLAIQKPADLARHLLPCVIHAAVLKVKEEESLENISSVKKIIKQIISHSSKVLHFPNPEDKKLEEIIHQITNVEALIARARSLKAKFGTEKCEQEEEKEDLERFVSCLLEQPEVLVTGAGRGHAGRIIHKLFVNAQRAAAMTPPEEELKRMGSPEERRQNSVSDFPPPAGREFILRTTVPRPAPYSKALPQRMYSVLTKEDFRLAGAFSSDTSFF
UniProt Q9Y3T6: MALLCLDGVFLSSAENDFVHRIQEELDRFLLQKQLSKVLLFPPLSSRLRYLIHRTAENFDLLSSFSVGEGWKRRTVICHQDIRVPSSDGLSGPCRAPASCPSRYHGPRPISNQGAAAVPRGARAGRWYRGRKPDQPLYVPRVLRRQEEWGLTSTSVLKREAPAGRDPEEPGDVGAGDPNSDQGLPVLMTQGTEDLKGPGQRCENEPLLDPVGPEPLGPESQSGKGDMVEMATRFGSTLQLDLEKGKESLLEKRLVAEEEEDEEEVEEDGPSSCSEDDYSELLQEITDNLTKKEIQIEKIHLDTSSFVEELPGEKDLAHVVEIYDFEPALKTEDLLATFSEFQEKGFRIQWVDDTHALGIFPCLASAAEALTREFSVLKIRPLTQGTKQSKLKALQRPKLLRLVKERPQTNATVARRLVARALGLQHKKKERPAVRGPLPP

Key:
Assay in all cases: log2 fold change, soluble protein after heating vs DMSO (PISA); higher = thermal stabilisation; K562 lysate, 10 uM; active = over 0.2 and 3.5 SD of the protein, either way, in both replicates (recomputed)
alvocidib = compound: CN1CC[C@H](c2c(O)cc(O)c3c(=O)cc(-c4ccccc4Cl)oc23)[C@H](O)C1 [alvocidib]
Outline: (§1)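 Dounce homogenisation of K562 pellets in PBS pH 7.4 with 1 mM MgCl2 produced a crude extract, used at 1 mg/mL protein. Exposure to 10 μM compound lasted 30 min, and aliquots were then heated for 3 min across 48°C-58°C, pooled and brought to 0.5% NP-40 at 4°C. The supernatant after 21,000xg for 90 min was quantified by TMTpro 16plex LC-MS/MS with channel sums equalised. Duplicate values are given as log-two fold change in thermal stability relative to solvent controls.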

Tubastatin A = compound: CN1CCc2c(c3ccccc3n2Cc2ccc(C(=O)NO)cc2)C1 [Tubastatin A]
Outline: as §1

[1] = compound: CNC(=O)C1=CC=CC=C1NC2=NC(=NC=C2Cl)NC3=C(C=C(C=C3)N4CCOCC4)OC
Outline: as §1

defactinib = compound: CNC(=O)c1ccc(Nc2ncc(C(F)(F)F)c(NCc3nccnc3N(C)S(C)(=O)=O)n2)cc1 [defactinib]
Outline: as §1

[2] = compound: CNc1nc(-c2ccc3c(N)n[nH]c3c2)cc(N2C[C@@H](C(=O)NC3CCCCC3)CC[C@H]2C)n1
Outline: as §1

encorafenib = compound: COC(=O)N[C@@H](C)CNc1nccc(-c2cn(C(C)C)nc2-c2cc(Cl)cc(NS(C)(=O)=O)c2F)n1 [encorafenib]
Outline: as §1

[3] = compound: COC(=O)[C@H](CCSC)NC(=O)C1=C(C=C(C=C1)NC[C@H](CS)N)C2=CC=CC=C2
Outline: as §1

alisertib = compound: COc1cc(Nc2ncc3c(n2)-c2ccc(Cl)cc2C(c2c(F)cccc2OC)=NC3)ccc1C(=O)O [alisertib]
Outline: as §1

[4] = compound: COc1cc2nc(-c3cc(F)ccc3O)nc(N[C@@H]3CNC[C@H]3C(C)(C)O)c2cc1OC
Outline: as §1

gefitinib = compound: COc1cc2ncnc(Nc3ccc(F)c(Cl)c3)c2cc1OCCCN1CCOCC1 [gefitinib]
Outline: as §1

lapatinib = compound: CS(=O)(=O)CCNCc1ccc(-c2ccc3ncnc(Nc4ccc(OCc5cccc(F)c5)c(Cl)c4)c3c2)o1 [lapatinib]
Outline: as §1

pictilisib = compound: CS(=O)(=O)N1CCN(Cc2cc3nc(-c4cccc5[nH]ncc45)nc(N4CCOCC4)c3s2)CC1 [pictilisib]
Outline: as §1

crizotinib = compound: C[C@@H](Oc1cc(-c2cnn(C3CCNCC3)c2)cnc1N)c1c(Cl)ccc(F)c1Cl [crizotinib]
Outline: as §1

[5] = compound: C[C@H](C1=CC=C(C=C1)C(=O)NC2=C3C=CNC3=NC=C2)N
Outline: as §1

duvelisib = compound: C[C@H](Nc1ncnc2nc[nH]c12)c1cc2cccc(Cl)c2c(=O)n1-c1ccccc1 [duvelisib]
Outline: as §1

gandotinib = compound: Cc1cc(Nc2cc(CN3CCOCC3)c3nc(C)c(Cc4ccc(Cl)cc4F)n3n2)n[nH]1 [gandotinib]
Outline: as §1

tozasertib = compound: Cc1cc(Nc2cc(N3CCN(C)CC3)nc(Sc3ccc(NC(=O)C4CC4)cc3)n2)n[nH]1 [tozasertib]
Outline: as §1

doramapimod = compound: Cc1ccc(-n2nc(C(C)(C)C)cc2NC(=O)Nc2ccc(OCCN3CCOCC3)c3ccccc23)cc1 [doramapimod]
Outline: as §1

bafetinib = compound: Cc1ccc(NC(=O)c2ccc(CN3CC[C@H](N(C)C)C3)c(C(F)(F)F)c2)cc1Nc1nccc(-c2cncnc2)n1 [bafetinib]
Outline: as §1

[6] = compound: Cc1cccc(CC(=O)N2CCc3c2ccc(-c2cn(C)c4ncnc(N)c24)c3F)n1
Outline: as §1

Measured: log2 fold change

RAB3A (UniProt P20336)
inactive: alvocidib -0.01 | Tubastatin A -0.007 | [1] 0.022 | defactinib 0.002 | [2] 0.008 | encorafenib 0.09 | [3] -0.041 | alisertib 0.077 | [4] 0.014 | gefitinib 0.001 | lapatinib -0.1 | pictilisib 0.039 | crizotinib 0.102 | [5] 0.033 | duvelisib 0.027 | gandotinib -0.052 | tozasertib -0.028 | doramapimod 0.1 | bafetinib 0.074 | [6] -0.123

RAB6B (UniProt Q9NRW1)
inactive: alvocidib -0.017 | Tubastatin A 0.073 | [1] 0.036 | defactinib 0.03 | [2] -0.015 | encorafenib 0.071 | [3] -0.029 | alisertib 0.024 | [4] 0.003 | gefitinib -0.002 | lapatinib -0.002 | pictilisib 0 | crizotinib -0.022 | [5] -0.023 | duvelisib 0.004 | gandotinib -0.017 | tozasertib 0.005 | doramapimod 0 | bafetinib 0.036 | [6] 0.004

RALBP1 (UniProt Q15311)
inactive: alvocidib 0.006 | Tubastatin A -0.023 | [1] -0.011 | defactinib 0.008 | [2] -0.053 | encorafenib 0.014 | [3] 0.17 | alisertib -0.003 | [4] -0.001 | gefitinib 0.004 | lapatinib -0.056 | pictilisib -0.027 | crizotinib -0.033 | [5] -0.033 | duvelisib 0.001 | gandotinib 0.019 | tozasertib -0.015 | doramapimod -0.012 | bafetinib -0.064 | [6] 0.003

RAP1GAP isoform 4 (UniProt P47736)
inactive: alvocidib 0.01 | Tubastatin A -0.138 | [1] 0.06 | defactinib 0.012 | [2] -0.027 | encorafenib 0.022 | [3] 0.01 | alisertib 0.024 | [4] 0.008 | gefitinib 0.026 | lapatinib -0.019 | pictilisib -0.018 | crizotinib -0.044 | [5] 0.044 | duvelisib -0.032 | gandotinib -0.044 | tozasertib -0.009 | doramapimod -0.001 | bafetinib -0.069 | [6] 0.007

RAB3GAP2 (UniProt Q9H2M9)
inactive: alvocidib -0.003 | Tubastatin A -0.061 | [1] 0.004 | defactinib 0.007 | [2] -0.014 | encorafenib 0.025 | [3] 0.051 | alisertib 0.035 | [4] -0.006 | gefitinib 0.003 | lapatinib 0.001 | pictilisib -0.017 | crizotinib -0.028 | [5] 0.019 | duvelisib -0.017 | gandotinib -0.073 | tozasertib 0.002 | doramapimod 0.032 | bafetinib -0.06 | [6] 0.008

RABGGTA (UniProt Q92696)
inactive: alvocidib -0.026 | Tubastatin A -0.008 | [1] -0.007 | defactinib -0.015 | [2] -0.051 | encorafenib 0.038 | [3] -0.205 | alisertib 0.011 | [4] 0.006 | gefitinib 0.008 | lapatinib -0.017 | pictilisib -0.006 | crizotinib -0.047 | [5] -0.065 | duvelisib 0.008 | gandotinib -0.004 | tozasertib 0.043 | doramapimod 0.027 | bafetinib -0.044 | [6] 0.029

RAC1 isoform 2 (UniProt P63000)
inactive: alvocidib 0.052 | Tubastatin A 0.024 | [1] -0.046 | defactinib 0.005 | [2] 0.05 | encorafenib -0.052 | [3] -0.018 | alisertib -0.028 | [4] 0.027 | gefitinib 0.011 | lapatinib 0.056 | pictilisib -0.01 | crizotinib 0.088 | [5] 0.19 | duvelisib 0.002 | gandotinib -0.125 | tozasertib 0.01 | doramapimod 0.016 | bafetinib 0.154 | [6] -0.185

RAMAC (UniProt Q9BTL3)
inactive: alvocidib 0.025 | Tubastatin A 0.048 | [1] 0.076 | defactinib 0.019 | [2] -0.041 | encorafenib -0.027 | [3] 0.006 | alisertib -0.004 | [4] -0.074 | gefitinib -0.019 | lapatinib 0.035 | pictilisib 0.06 | crizotinib 0.061 | [5] 0.078 | duvelisib -0.019 | gandotinib -0.047 | tozasertib 0.084 | doramapimod -0.035 | bafetinib 0.142 | [6] -0.009

RAB9A (UniProt P51151)
inactive: alvocidib 0.063 | Tubastatin A 0.03 | [1] -0.02 | defactinib 0.037 | [2] 0.029 | encorafenib 0.02 | [3] -0.032 | alisertib 0 | [4] 0.076 | gefitinib 0.066 | lapatinib -0.045 | pictilisib -0.032 | crizotinib 0.048 | [5] 0.009 | duvelisib 0.018 | gandotinib -0.047 | tozasertib -0.009 | doramapimod 0.005 | bafetinib -0.025 | [6] -0.059

RAD23A (UniProt P54725)
inactive: alvocidib 0.007 | Tubastatin A 0.024 | [1] -0.048 | defactinib -0.04 | [2] -0.01 | encorafenib -0.048 | [3] -0.049 | alisertib 0.018 | [4] -0.007 | gefitinib 0.014 | lapatinib 0.033 | pictilisib 0 | crizotinib 0.008 | [5] -0.026 | duvelisib -0.005 | gandotinib 0.016 | tozasertib 0.028 | doramapimod 0.068 | bafetinib 0.019 | [6] -0.017

Quoted from the entries so far (two entries):
RAP1GAP isoform 4 (UniProt P47736)
inactive: alvocidib 0.01 | Tubastatin A -0.138 | [1] 0.06 | defactinib 0.012 | [2] -0.027 | encorafenib 0.022 | [3] 0.01 | alisertib 0.024 | [4] 0.008 | gefitinib 0.026 | lapatinib -0.019 | pictilisib -0.018 | crizotinib -0.044 | [5] 0.044 | duvelisib -0.032 | gandotinib -0.044 | tozasertib -0.009 | doramapimod -0.001 | bafetinib -0.069 | [6] 0.007

RAB3GAP2 (UniProt Q9H2M9)
inactive: alvocidib -0.003 | Tubastatin A -0.061 | [1] 0.004 | defactinib 0.007 | [2] -0.014 | encorafenib 0.025 | [3] 0.051 | alisertib 0.035 | [4] -0.006 | gefitinib 0.003 | lapatinib 0.001 | pictilisib -0.017 | crizotinib -0.028 | [5] 0.019 | duvelisib -0.017 | gandotinib -0.073 | tozasertib 0.002 | doramapimod 0.032 | bafetinib -0.06 | [6] 0.008

Later entries:

RAB21 (UniProt Q9UL25)
inactive: alvocidib 0.069 | Tubastatin A 0.034 | [1] 0.048 | defactinib -0.025 | [2] 0.026 | encorafenib 0.005 | [3] -0.072 | alisertib 0.015 | [4] 0.013 | gefitinib 0.003 | lapatinib -0.028 | pictilisib -0.053 | crizotinib -0.001 | [5] 0.208 | duvelisib -0.087 | gandotinib -0.112 | tozasertib -0.013 | doramapimod -0.055 | bafetinib -0.059 | [6] -0.09

RAPGEF1 isoform 3 (UniProt Q13905)
inactive: alvocidib -0.049 | Tubastatin A 0.075 | [1] 0.107 | defactinib -0.057 | [2] 0.059 | encorafenib 0.082 | [3] 0.161 | alisertib -0.025 | [4] 0.039 | gefitinib 0 | lapatinib -0.006 | pictilisib 0.002 | crizotinib -0.002 | [5] -0.072 | duvelisib -0.017 | gandotinib 0.082 | tozasertib 0.064 | doramapimod -0.021 | bafetinib -0.274 | [6] -0.022

RAB22A (UniProt Q9UL26)
inactive: alvocidib -0.037 | Tubastatin A 0.01 | [1] 0.097 | defactinib -0.019 | [2] -0.052 | encorafenib 0.03 | [3] -0.064 | alisertib 0.045 | [4] 0.061 | gefitinib 0.037 | lapatinib -0.024 | pictilisib -0.049 | crizotinib -0.008 | [5] -0.056 | duvelisib 0.016 | gandotinib 0.072 | tozasertib -0.034 | doramapimod 0.002 | bafetinib -0.002 | [6] 0.073

PYGL (UniProt P06737)
inactive: alvocidib 0.168 | Tubastatin A 0.006 | [1] -0.012 | defactinib -0.016 | [2] -0.05 | encorafenib -0.031 | [3] -0.012 | alisertib -0.005 | [4] -0.006 | gefitinib 0.011 | lapatinib -0.003 | pictilisib -0.012 | crizotinib 0.008 | [5] -0.045 | duvelisib 0.011 | gandotinib 0.004 | tozasertib 0.023 | doramapimod -0.016 | bafetinib 0.02 | [6] 0

RAB3GAP1 (UniProt Q15042)
inactive: alvocidib 0.008 | Tubastatin A -0.039 | [1] 0.02 | defactinib -0.011 | [2] -0.056 | encorafenib 0.027 | [3] 0.046 | alisertib 0.022 | [4] 0.002 | gefitinib -0.021 | lapatinib 0.012 | pictilisib 0.003 | crizotinib -0.059 | [5] -0.004 | duvelisib -0.012 | gandotinib -0.077 | tozasertib 0.002 | doramapimod 0.018 | bafetinib -0.056 | [6] 0.014

R3HCC1 (UniProt Q9Y3T6)
inactive: alvocidib -0.019 | Tubastatin A 0.023 | [1] 0.048 | defactinib 0.055 | [2] -0.018 | encorafenib -0.004 | [3] -0.04 | alisertib -0.002 | [4] 0.003 | gefitinib 0.008 | lapatinib -0.018 | pictilisib -0.049 | crizotinib 0 | [5] -0.034 | duvelisib 0 | gandotinib 0.089 | tozasertib 0.006 | doramapimod 0.044 | bafetinib 0.002 | [6] 0.08
